Assay results reported in patent US11117856B2, “Polyamine compounds targeting the efflux pumps of multi-drug resistant bacterial pathogens and methods of using the same” (UNIVERSITY OF SOUTH FLORIDA, priority 2016, dated 2021).
Some of these results come from one statement about several compounds together. Some ranges recur; such a range may be that of the whole group of compounds.

System: P. aeruginosa biofilm
Assay: Pre-formed biofilm viability assessment with tetracycline
Type: cell-based
Conditions: 12 μM tetracycline + MPC of EPI
Protocol: Lead agents were screened for bactericidal activity as described previously (Van Horn, et al. J. Med. Chem. 2014, 57, 3075-3093; […], et al. J. Med. Chem. 2015, 58, 3340-3355), with the following modifications. […] Biofilm experiments were performed similar to those described previously ([…], et al. J. Med. Chem. 2015, 58, 3340-3355; von Salm, et al. Org. Lett. 2016, 18, 2596-2599), with the following modifications. […] Cellular viability was determined by serial dilution after a 20-hour incubation at 37° C. Values were converted to percent recovery using no treatment controls. All data was generated from three biological replicates and two technical replicates.

| SMILES | biofilm recovery, combination treatment |
| --- | --- |
| CNCCCC[C@@H](CN)NC[C@H](Cc1ccccc1)NCCc1ccccc1 [TPI 247, (S)—N6-methyl-N2—((S)-2-(phenethylamino)-3-phenylpropyl)hexane-1,2,6-triamine] | 9.1-11% |
| NCCC[C@H](CN)NC[C@H](Cc1ccccc1)NCCc1ccccc1 [TPI 271, (R)—N^2—((S)-2-(phenethylamino)-3-phenylpropyl)pentane-1,2,5-triamine] | 9.1-11% |
| CNCCCC[C@H](CN)NC[C@H](Cc1ccccc1)NCCc1ccccc1 [TPI 266, (R)—N^6-methyl-N^2—((S)-2-(phenethylamino)-3-phenylpropyl)hexane-1,2,6-triamine] | 9.1-11% |
| NCCC[C@@H](CN[C@H](CN)Cc1ccccc1)NCCc1ccccc1 [TPI 314, (S)—N^1—((S)-1-amino-3-phenylpropan-2-yl)-N^2-phenethylpentane-1,2,5-triamine] | 9.1-11% |
